# The other results are listed elsewhere or left out.
# Assays:
# Assay in all cases: glycan array binding signal (z-score within array); higher = stronger binding
# Details in all cases: glycan notation: IUPAC condensed, linker removed; mutation: D224N
# [1] = molecular target: Neu5Gc(a2-8)Neu5Gc(a2-3)Gal(b1-4)GlcNAc(b1-3)Gal(b1-4)GlcNAc
# Summary of the method: (§1)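 From the Consortium for Functional Glycomics database, 3228 arrays were curated, keeping only those whose protein sequence was available. Binding is given as a within-array Z-score averaged across arrays sharing a protein sequence and across linkers. Negative Z-scores can be read as non-binding.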
# [2] = molecular target: Neu5Gc(a2-8)Neu5Gc(a2-6)Gal(b1-4)GlcNAc
# Summary of the method: as §1
# [3] = molecular target: Neu5Gc(b2-6)Gal(b1-4)GlcNAc
# Summary of the method: as §1
binder,measurement,setting,value
a L Fucosidase (Thermotoga maritima) (protein) MASMKPRYKPDWESLREHTVPKWFDKAKFGIFIHWGIYSVPGWATPTGELGKVPMDAWFFQNPYAEWYENSLRIKESPTWEYHVKTYGENFEYEKFADLFTAEKWDPQEWADLFKKAGAKYVIPTTKHHDGFCLWGTKYTDFNSVKRGPKRDLVGDLAKAVREAGLRFGVYYSGGLDWRFTTEPIRYPEDLSYIRPNTYEYADYAYKQVMELVDLYLPDVLWNNMGWPEKGKEDLKYLFAYYYNKHPEGSVNDRWGVPHWDFKTAEYHVNYPGDLPGYKWEFTRGIGLSFGYNRNEGPEHMLSVEQLVYTLVDVVSKGGNLLLNVGPKGDGTIPDLQKERLLGLGEWLRKYGDAIYGTSVWERCCAKTEDGTEIRFTRKCNRIFVIFLGIPTGEKIVIEDLNLSAGTVRHFLTGERLSFKNVGKNLEITVPKKLLETDSITLVLEAVEE,glycan array binding signal (z-score),[1],-0.813
same,glycan array binding signal (z-score),[2],-0.821
same,glycan array binding signal (z-score),[3],-0.305

# Source: the supplement of paper PMC8728848
